Consider three molecules from article PMC6113207.

The chains behind the UniProt entries cited, without tags or fusion partners.
UniProt Q9H0J9: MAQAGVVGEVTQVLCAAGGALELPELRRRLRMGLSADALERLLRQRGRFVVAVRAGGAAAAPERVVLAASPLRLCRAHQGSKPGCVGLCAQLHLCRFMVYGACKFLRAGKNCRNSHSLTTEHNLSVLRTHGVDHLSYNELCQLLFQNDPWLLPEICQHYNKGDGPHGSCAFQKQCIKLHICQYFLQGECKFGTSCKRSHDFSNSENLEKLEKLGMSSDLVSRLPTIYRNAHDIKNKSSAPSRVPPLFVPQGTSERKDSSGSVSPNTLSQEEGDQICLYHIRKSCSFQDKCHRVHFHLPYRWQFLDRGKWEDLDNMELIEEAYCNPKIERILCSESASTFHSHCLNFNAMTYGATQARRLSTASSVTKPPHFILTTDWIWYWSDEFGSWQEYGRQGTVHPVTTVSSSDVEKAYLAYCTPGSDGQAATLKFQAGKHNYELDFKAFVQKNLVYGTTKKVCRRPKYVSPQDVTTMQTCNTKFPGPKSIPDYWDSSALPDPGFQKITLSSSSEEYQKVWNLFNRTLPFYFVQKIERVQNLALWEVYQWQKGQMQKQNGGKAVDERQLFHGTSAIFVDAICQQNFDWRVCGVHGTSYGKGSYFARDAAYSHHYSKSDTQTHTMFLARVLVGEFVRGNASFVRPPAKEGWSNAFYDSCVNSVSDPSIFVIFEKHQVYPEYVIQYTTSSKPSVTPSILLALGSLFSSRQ

Results are given in words; binding and its absence hold for the method and conditions named. In cells and extracts the contact can be indirect. Some entries that bind do so weakly or less than the wild type. For part of these data: Where a sequence is shown, tags or fusion partners need not be part of it.

One test addresses T1, SFB-tagged FHL2 (human) (UniProt Q14192).
T1 sequence: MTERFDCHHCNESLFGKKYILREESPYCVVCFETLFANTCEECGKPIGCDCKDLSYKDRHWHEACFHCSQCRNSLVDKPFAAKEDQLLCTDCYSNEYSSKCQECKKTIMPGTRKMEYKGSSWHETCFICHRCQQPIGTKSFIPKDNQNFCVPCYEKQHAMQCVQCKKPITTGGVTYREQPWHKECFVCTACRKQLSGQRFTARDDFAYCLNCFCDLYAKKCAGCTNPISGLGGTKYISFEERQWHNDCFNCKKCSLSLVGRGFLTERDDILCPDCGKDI
Put plainly: co-IP; exogenous IP: HEK293T co-transfected, NETN lysate, SFB-tagged protein captured on high-capacity streptavidin beads 3 h at 4 °C, five washes, Western blot. On the technique in general: In western blotting, separated proteins are transferred to a membrane and probed.

The target of test [1] is streptavidin-Flag-S protein (SFB)-tagged PARP12 (human) (UniProt Q9H0J9). The test is described as above.
The target of test [2] is PARP12, endogenous (human (endogenous in HEK293T, QGY-7703, Huh7)) (UniProt Q9H0J9). Nature of the test: co-IP; endogenous reciprocal IP with anti-PARP12 and anti-FHL2 antibodies on protein-A/G beads, 3 h at 4 °C, NETN lysates of HEK293T, QGY-7703 and Huh7 cells; irrelevant IgG as negative control.

“GFP-tagged PARP12, wild type (from UniProt Q9H0J9 1-701) (enzyme)”: the binding entry with SFB-tagged FHL2 (human) is on record as “binds”.

B1: HA-tagged FHL2 (HEK293T) (protein, UniProt Q14192-1 1-279)
chain: T1 sequence
On to B1, for which the binding result in test [1] is “binds”.

B2: four-and-a-half LIM-only protein 2 (FHL2), endogenous (protein, UniProt Q14192 1-279)
chain: T1 sequence
Regarding B2, the binding result in test [2] is given as “binds”.
